Measurements taken from the supplement of paper PMC7858590.
± gives the standard deviation of the averaged measurements. Whole data set: some 3,800 compounds, median “cell shape (eccentricity) Z-score vs DMSO control” near 1.1, cut for the lowest 2% near -4.7. The list shows a part of the results.

system: human monocyte-derived macrophages (M0); test: cell shape (eccentricity) Z-score vs DMSO control; higher = more elongated, M2-like morphology; conditions: 20 µM; 24 h; macrophage state: M0 (M-CSF)
Method: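 Primary human monocyte-derived macrophages (M-CSF differentiated, pooled from 4 donors, 5000 cells/well in 384-well plates) were treated with each compound at 20 uM for 24 h, then fixed and stained with phalloidin/DAPI and imaged on an Opera Phenix (6 fields, about 1000 cells/well). Cell eccentricity was measured with CellProfiler, and a Z-score (t-test) was computed against 4 DMSO control wells in the same row. Negative values mean round (M1-like) cells and positive values mean elongated (M2-like) cells; the paper's hit cutoffs are Z <= -4 (M1) and Z >= 6 (M2). Scale: negative = round, M1-like.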

| Structure (SMILES) | cell shape (Z-score) |
| --- | --- |
| CC(C)C12CC1C(C)(O[C@@H]1O[C@H](CO)[C@@H](O)[C@H](O)[C@H]1O)CC2=O (some centres not stated) | 1.52 |
| COc1cc2c(cc1OC)C(=O)CC2 | 1.81 |
| CC1(C)CC[C@]2(C(=O)OC3OC(CO)C(O)C(O)C3O)CC[C@]3(C)C(=CCC4[C@@]5(C)CC[C@H](OC6OC(C(=O)O)C(O)C(O)C6O)C(CO)(CO)C5CC[C@]43C)[C@@H]2C1 (some centres not stated) | -0.601 |
| COC(=O)C(CCCNC(=N)N)NC(=O)CCCc1c(-c2ccccc2)[nH]c2c(F)cc(F)cc12 (configuration not stated) | 6.11 |
| Cc1ccnc(NS(=O)(=O)c2ccc(N)cc2)n1 | 1.19 |
| COC(=O)Nc1nc2cc(SC(C)C)ccc2[nH]1 | -4.88 ± 0.16 |
| COc1ccc(/C=C/C(=O)c2c(-c3ccccc3)c3ccccc3[nH]c2=O)cc1 | 2.88 |
| CCC(=C(c1ccccc1)c1ccc(OCCN(C)C)cc1)c1ccccc1 | -1.43 |
| C=C1C(=O)O[C@H]2C[C@@H](C)[C@@H]3CCC(=O)[C@@]3(C)C[C@H]12 | -2.44 |
| COCCOC(=O)C1=C(C)NC(C)=C(C(=O)OC(C)C)C1c1cccc([N+](=O)[O-])c1 (configuration not stated) | 4.62 |
| CC(C)Cc1cnc(CCC(N)=O)c(=O)[nH]1 | -0.681 |
| CC(=O)OC[C@H]1O[C@@H](Oc2c(-c3ccc(O)cc3)oc3cc(O)cc(O)c3c2=O)[C@H](O)[C@@H](O)[C@@H]1O | 1.79 |
| OCC(Cc1ccc2c(c1)OCO2)C(CO)Cc1ccc2c(c1)OCO2 (configuration not stated) | 1.02 ± 0.32 |
| c1ccc(-c2nc3ccccc3[nH]2)cc1 | 1.25 |
| O=C1OCc2cc3cccc(O[C@@H]4O[C@H](CO[C@@H]5OC[C@@H](O)[C@H](O)[C@H]5O)[C@@H](O)[C@H](O)[C@H]4O)c3c(O)c21 | 3.35 |
| C=CC1CN(C(C)=O)CCC1CCC(=O)c1ccnc2ccccc12 (configuration not stated) | -1.55 |
| C=C[C@@]1(C)CC(=O)[C@]2(O)[C@@]3(C)[C@@H](O)CCC(C)(C)[C@@H]3[C@H](O)[C@H](OC(=O)CCCN3CCN(C)CC3)[C@@]2(C)O1 | 2.22 |
| COc1ccc(C(C)C(=O)c2ccc(O)cc2O)cc1O (configuration not stated) | 2.94 ± 1.8 |
| CC(=O)O[C@@H]1[C@@H](OC(=O)/C=C/c2ccccc2)[C@H](C)O[C@@H](O[C@H]2[C@@H]3C=CO[C@@H](O[C@@H]4O[C@H](CO)[C@@H](O)[C@H](O)[C@H]4O)[C@@H]3[C@@]3(CO)O[C@@H]23)[C@@H]1OC(C)=O | 1.75 |
| CC1=CC(=O)CC(C)(C)[C@@]1(O)/C=C/C(C)=C\C(=O)O | 0.468 |
| CCCCCC[C@H](O)[C@@H]1C[C@@H](O)C2=C(O1)[C@@H](O)CCC2=O | 0.424 ± 3.9 |
| CC[C@@]1(O)C(=O)OCc2c1cc1n(c2=O)Cc2cc3cc(O)ccc3nc2-1 | 0.605 |

Quoted at random: 2 compounds from above, in no set order.

| Structure (SMILES) | cell shape (Z-score) |
| --- | --- |
| C=C1C(=O)O[C@H]2C[C@@H](C)[C@@H]3CCC(=O)[C@@]3(C)C[C@H]12 | -2.44 |
| OCC(Cc1ccc2c(c1)OCO2)C(CO)Cc1ccc2c(c1)OCO2 (configuration not stated) | 1.02 ± 0.32 |
